The results in this text go back to article PMC2614475.

Amino acid sequences for entries named in this document (tags omitted). A change or cut given only in a name is not applied to a line headed by its entry.
UniProt Q9Z340: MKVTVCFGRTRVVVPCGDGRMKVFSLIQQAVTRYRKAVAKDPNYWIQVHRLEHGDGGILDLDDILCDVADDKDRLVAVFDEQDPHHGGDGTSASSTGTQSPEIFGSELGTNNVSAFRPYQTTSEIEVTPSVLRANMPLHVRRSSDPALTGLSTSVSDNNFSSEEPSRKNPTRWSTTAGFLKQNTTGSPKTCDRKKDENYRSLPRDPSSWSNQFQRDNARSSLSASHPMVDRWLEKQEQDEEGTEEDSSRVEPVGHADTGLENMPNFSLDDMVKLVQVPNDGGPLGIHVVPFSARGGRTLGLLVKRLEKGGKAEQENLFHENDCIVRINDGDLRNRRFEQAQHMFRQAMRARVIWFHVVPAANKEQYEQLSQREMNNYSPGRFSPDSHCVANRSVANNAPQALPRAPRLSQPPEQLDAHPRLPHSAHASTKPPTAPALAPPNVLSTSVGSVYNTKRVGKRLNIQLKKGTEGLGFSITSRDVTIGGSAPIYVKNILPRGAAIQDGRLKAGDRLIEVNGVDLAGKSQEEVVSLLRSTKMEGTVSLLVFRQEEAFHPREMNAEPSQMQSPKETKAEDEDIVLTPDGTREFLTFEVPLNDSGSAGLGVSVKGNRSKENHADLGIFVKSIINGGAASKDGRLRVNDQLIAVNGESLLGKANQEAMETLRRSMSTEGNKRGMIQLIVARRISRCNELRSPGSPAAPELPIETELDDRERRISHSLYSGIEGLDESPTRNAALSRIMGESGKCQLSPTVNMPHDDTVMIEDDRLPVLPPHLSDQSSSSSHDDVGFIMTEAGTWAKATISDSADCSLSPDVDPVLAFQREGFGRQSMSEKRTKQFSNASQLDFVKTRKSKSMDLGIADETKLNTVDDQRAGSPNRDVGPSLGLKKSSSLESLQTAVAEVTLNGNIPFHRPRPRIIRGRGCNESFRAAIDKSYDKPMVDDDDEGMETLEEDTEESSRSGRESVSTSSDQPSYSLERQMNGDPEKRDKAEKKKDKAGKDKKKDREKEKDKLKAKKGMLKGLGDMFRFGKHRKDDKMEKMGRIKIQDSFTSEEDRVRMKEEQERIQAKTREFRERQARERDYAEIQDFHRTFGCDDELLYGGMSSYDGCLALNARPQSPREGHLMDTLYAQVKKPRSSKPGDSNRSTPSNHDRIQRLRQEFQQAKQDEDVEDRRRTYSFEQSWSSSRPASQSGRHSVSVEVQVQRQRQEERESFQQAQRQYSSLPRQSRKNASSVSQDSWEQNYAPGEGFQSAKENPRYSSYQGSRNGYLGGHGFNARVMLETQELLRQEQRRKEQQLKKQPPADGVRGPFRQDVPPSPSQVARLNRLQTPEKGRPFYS

Experiment [1] concerns the target T1, glutathione S-transferase fused with the cytoplasmic tail of nephrin (GST–nephrinICD) (human) (UniProt O60500).
T1 sequence: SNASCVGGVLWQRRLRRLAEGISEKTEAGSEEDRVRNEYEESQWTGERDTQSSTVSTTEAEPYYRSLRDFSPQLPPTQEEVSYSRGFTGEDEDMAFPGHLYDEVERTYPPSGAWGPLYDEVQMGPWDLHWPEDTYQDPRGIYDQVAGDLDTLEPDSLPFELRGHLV
Nature of the experiment: pull-down; GST–nephrinICD-immobilized beads incubated 2 h at 4°C with 293T cell lysate expressing T7-tagged PAR3 constructs; 25 mM Tris-HCl pH 8.0, 100 mM NaCl, 5 mM EDTA, 1% TritonX-100; immunoblotting and CBB staining; only the target purified. In general terms: In western blotting, separated proteins are transferred to a membrane and probed.

Experiment [2] concerns the target the three PDZ domains of PAR3 fused with maltose binding protein (MBP–PDZ123) (rat) (UniProt Q9Z340). Description: pull-down; purified MBP–PDZ123 incubated with GST-fused nephrin constructs, each at a final concentration of 50 nM; text says MBP–PDZ123 was immobilized; immunoblotting and CBB staining; both purified.

Results are given in words; binding and its absence hold for the method and conditions named. For part of these data: A result given as binding can be weak or reduced; the word gives no strength. Where a sequence is shown, tags or fusion partners need not be part of it. For part of these data: In cells and extracts the contact can be indirect.

As for “T7-tagged PAR3 mutant mutated in the third PDZ domain (from UniProt Q9Z340)”, in experiment [1], the binding result is listed as “no binding”.

In the case of EAEPYYRSLRDFSPQLPPTQEEVSYSRGFTG (domain or fragment, UniProt O60500 1134-1164) [GST–nephrin ICD-A], in experiment [2], the binding result is “binds”.

Regarding SLPFELRGHLV (peptide, UniProt O60500 1231-1241) [GST–nephrin CT11], in experiment [2], the binding entry was “binds”.
